# Source: PubChem BioAssay AID248 (DTP/NCI, 2004)
# The list shows only some results of the screen, not a fair sample: it gathers tests that were run many times, whatever their T/C, doses with no T/C, and many T/C values between a quarter and a half above the control. Other doses and runs of a compound stand elsewhere. T/C: endpoint of the treated group in % of that of the vehicle group. Some doses have a count of surviving animals in place of a T/C: the source holds a T/C of zero for them, seemingly a mark for toxic or unscored doses. Some doses without a T/C left all or most animals alive at the check, yet need not have been tolerated: the source hardly ever lists a survival T/C far under the control, and the zero likely stands for such cases as well. Counts of survivors are from the toxicity check (mostly the fifth day) where no day follows; animals may have died later. Schedules are NCI's codes, taken here to give the interval after Q, in days (D) or hours (H), and the number of doses after X. Some entries hold several experiments; the results are listed from low to high. Some schedule codes hold Z or #, which are not explained here. For survival time, the PubChem record calls one and a half times the control and up active, and a quarter to a half above the control has no call in these data; cut-offs in other NCI protocols can differ.
# Tested on: L1210 leukemia ip in BDF1 mice, survival T/C
# Assay: NCI In Vivo Anticancer Drug Screen. Data for tumor model L1210 Leukemia (intraperitoneal) in B6D2F1 (BDF1) mice
# Conditions: T/C endpoint: mean survival time, higher T/C = longer survival
# [1] = dose: 200.0 mg/kg/injection, schedule: Q01DX001 (ip), vehicle: saline
# [2] = dose: 400.0 mg/kg/injection, schedule: Q01DX001 (ip), vehicle: saline
# [3] = dose: 400.0 mg/kg/injection, schedule: Q01DX001 (ip), vehicle: carboxymethylcellulose (CMC)
# [4] = dose: 400.0 mg/kg/injection, schedule: Q01DX009 (ip), vehicle: Klucel (hydroxypropylcellulose) (HPC)
# [5] = dose: 200.0 mg/kg/injection, schedule: Q01DX009 (ip), vehicle: saline
# [6] = dose: 400.0 mg/kg/injection, schedule: Q04DX003 (ip), vehicle: saline
# [7] = dose: 25.0 mg/kg/injection, schedule: Q01DX009 (ip), vehicle: saline with Tween-80
# [8] = dose: 50.0 mg/kg/injection, schedule: Q01DX009 (ip), vehicle: saline with Tween-80
# [9] = dose: 100.0 mg/kg/injection, schedule: Q01DX009 (ip), vehicle: saline with Tween-80
smiles,measurement,setting,value
OCC1OC(n2cnc3cncnc32)C(O)C1O (centres undefined),survivor count,"dose: 40.0 mg/kg/injection, schedule: Q01DX015 (ip), vehicle: saline",3 of 6
same,survivor count,"dose: 80.0 mg/kg/injection, schedule: Q01DX015 (ip), vehicle: saline",0 of 6
same,T/C,"dose: 100.0 mg/kg/injection, schedule: Q01DX001 (ip), vehicle: saline",127 % of control
same,survivor count,"dose: 160.0 mg/kg/injection, schedule: Q01DX015 (ip), vehicle: saline",0 of 6
same,survivor count,[1],0 of 4
same,survivor count,"dose: 320.0 mg/kg/injection, schedule: Q01DX015 (ip), vehicle: saline",0 of 6
same,survivor count,[2],0 of 4
CC(C)(C)C1CCC2(CC1)CCN(CCCN1CCCCCC1)CC2,survivor count,[1],0 of 4
same,survivor count,[2],0 of 4
COc1cc(C=Nc2cc(Cl)cc(Cl)c2)ccc1N(CCCl)CCCl,T/C,"dose: 30.0 mg/kg/injection, schedule: Q01DX015 (ip), vehicle: carboxymethylcellulose (CMC)",130 % of control
same,T/C,"dose: 44.4 mg/kg/injection, schedule: Q01DX001 (ip), vehicle: carboxymethylcellulose (CMC)",137 % of control
same,T/C,"dose: 50.0 mg/kg/injection, schedule: Q01DX015 (ip), vehicle: carboxymethylcellulose (CMC)",133 % of control
same,T/C,"dose: 66.6 mg/kg/injection, schedule: Q01DX001 (ip), vehicle: carboxymethylcellulose (CMC)",139 % of control
same,T/C,"dose: 100.0 mg/kg/injection, schedule: Q01DX001 (ip), vehicle: carboxymethylcellulose (CMC)",134 % of control
same,T/C,[3],143 % of control
O=C(O)c1ccc(C(=O)c2ccc([N+](=O)[O-])cc2)cc1,survivor count,"dose: 100.0 mg/kg/injection, schedule: Q01DX009 (ip), vehicle: carboxymethylcellulose (CMC)",3 of 3
same,survivor count,"dose: 200.0 mg/kg/injection, schedule: Q01DX009 (ip), vehicle: carboxymethylcellulose (CMC)",3 of 3
CCS(=O)(=O)C(Br)CBr (centres undefined),survivor count,"dose: 100.0 mg/kg/injection, schedule: Q01DX009 (ip), vehicle: Klucel (hydroxypropylcellulose) (HPC)",4 of 6
same,survivor count,"dose: 200.0 mg/kg/injection, schedule: Q01DX009 (ip), vehicle: Klucel (hydroxypropylcellulose) (HPC)",1 of 6
same,survivor count,[4],1 of 6
same,survivor count,"dose: 400.0 mg/kg/injection, schedule: Q04DX002 (ip), vehicle: Klucel (hydroxypropylcellulose) (HPC)",1 of 3
OCC[CH2][Pb]([c]1ccccc1)([c]1ccccc1)[c]1ccccc1,survivor count,"dose: 12.5 mg/kg/injection, schedule: Q04DX003 (ip), vehicle: Klucel (hydroxypropylcellulose) (HPC)",6 of 6
same,survivor count,"dose: 25.0 mg/kg/injection, schedule: Q04DX003 (ip), vehicle: Klucel (hydroxypropylcellulose) (HPC)",3 of 6
same,survivor count,"dose: 100.0 mg/kg/injection, schedule: Q04DX003 (ip), vehicle: Klucel (hydroxypropylcellulose) (HPC)",5 of 6
same,survivor count,"dose: 200.0 mg/kg/injection, schedule: Q04DX003 (ip), vehicle: Klucel (hydroxypropylcellulose) (HPC)",0 of 6
same,survivor count,"dose: 400.0 mg/kg/injection, schedule: Q04DX003 (ip), vehicle: Klucel (hydroxypropylcellulose) (HPC)",0 of 6
CCCCCCCCCCCCCCCC(=O)N(CCC#N)CCCCCCCCCN(CCC#N)C(=O)CCCCCCCCCCCCCCC,survivor count,[5],6 of 6
CCN(CC)CCOC(=O)C1c2ccccc2Oc2ccccc21,survivor count,[3],2 of 4
NCCC(=O)OC1CCCc2c(O)c3c(c(O)c21)C(=O)c1ccccc1C3=O (centres undefined),survivor count,"dose: 100.0 mg/kg/injection, schedule: Q01DX009 (ip), vehicle: saline",5 of 6
same,survivor count,"dose: 200.0 mg/kg/injection, schedule: Q04DX003 (ip), vehicle: saline",5 of 6
same,survivor count,[6],5 of 6
O=C(C[n+]1c(Cl)ccc2ccccc21)c1ccccc1,survivor count,"dose: 300.0 mg/kg/injection, schedule: Q01DX001 (ip), vehicle: other",1 of 6
CC(C)C/C=N\N=C(N)N,survivor count,"dose: 120.0 mg/kg/injection, schedule: Q01DX Z (ip), vehicle: saline",0 of 6
same,survivor count,"dose: 240.0 mg/kg/injection, schedule: Q01DX Z (ip), vehicle: saline",0 of 6
same,survivor count,"dose: 240.0 mg/kg/injection, schedule: Q01DX Z (sc), vehicle: saline",2 of 6
same,survivor count,"dose: 480.0 mg/kg/injection, schedule: Q01DX Z (ip), vehicle: saline",0 of 6
same,survivor count,"dose: 480.0 mg/kg/injection, schedule: Q01DX Z (sc), vehicle: saline",2 of 6
CCCCOC(=O)CC1CCCN1C (centres undefined),survivor count,[6],1 of 6
C=CCN(CC=C)CCNc1nc(C(Cl)(Cl)Cl)nc2ccc(Cl)cc12,survivor count,"dose: 400.0 mg/kg/injection, schedule: Q04DX003 (ip), vehicle: saline with Tween-80",6 of 6
O=C(O)C1(Br)CC12c1ccccc1-c1ccccc12 (centres undefined),survivor count,"dose: 400.0 mg/kg/injection, schedule: Q01DX001 (ip), vehicle: acetone",0 of 6
CCc1ccc2c(c1)N(CCCN(CCCl)CCCl)c1ccccc1S2,survivor count,[7],2 of 6
same,survivor count,[8],0 of 6
same,survivor count,"dose: 75.0 mg/kg/injection, schedule: Q04DX003 (ip), vehicle: alcohol",6 of 6
same,survivor count,"dose: 113.0 mg/kg/injection, schedule: Q04DX003 (ip), vehicle: alcohol",3 of 6
same,survivor count,"dose: 170.0 mg/kg/injection, schedule: Q04DX003 (ip), vehicle: alcohol",3 of 6
O=C(NNC(=O)OCC(Cl)(Cl)Cl)OCC(Cl)(Cl)Cl,survivor count,"dose: 100.0 mg/kg/injection, schedule: Q04DX002 (ip), vehicle: saline with Tween-80",2 of 3
C[N+](C)(C)Cc1c(CC(O)(c2ccccc2)c2ccccc2)ccc2ccccc12,survivor count,"dose: 200.0 mg/kg/injection, schedule: Q01DX001 (ip), vehicle: carboxymethylcellulose (CMC)",2 of 4
same,survivor count,[3],2 of 4
CCCCC(/C=N\NC(=O)c1ccc[n+](C)c1)CC (centres undefined),survivor count,[5],0 of 3
COc1ccccc1NC(=O)NCCN1CCOCC1,survivor count,[4],3 of 6
CC(C)Sc1ncnc2nc[nH]c12,T/C,"dose: 90.0 mg/kg/injection, schedule: Q01DX009 (ip), vehicle: saline with Tween-80",134 % of control
same,T/C,"dose: 135.0 mg/kg/injection, schedule: Q01DX009 (ip), vehicle: saline with Tween-80",141 % of control
same,T/C,"dose: 150.0 mg/kg/injection, schedule: Q01DX001 (sc), vehicle: steroid suspending solution",128 % of control
same,survivor count,"dose: 200.0 mg/kg/injection, schedule: Q01DX009 (sc), vehicle: steroid suspending solution",4 of 6
same,T/C,"dose: 300.0 mg/kg/injection, schedule: Q01DX001 (sc), vehicle: steroid suspending solution",141 % of control
same,survivor count,"dose: 400.0 mg/kg/injection, schedule: Q01DX009 (sc), vehicle: steroid suspending solution",4 of 6
same,survivor count,"dose: 800.0 mg/kg/injection, schedule: Q01DX009 (sc), vehicle: steroid suspending solution",3 of 6
COc1cc(/C=C2\NC(=O)NC2=O)ccc1O,survivor count,[9],6 of 6
COc1ccc(/C=N/NC(=O)CNC(=O)c2ccc(Cl)c(Cl)c2)cc1,survivor count,[7],3 of 3
same,survivor count,[8],2 of 3 and 3 of 3
same,survivor count,[9],3 of 3
same,survivor count,"dose: 200.0 mg/kg/injection, schedule: Q01DX009 (ip), vehicle: saline with Tween-80",3 of 3
O=NN(CCF)C(=O)NCCCl,survivor count,"dose: 32.0 mg/kg/injection, schedule: Q01DX001 (ip), vehicle: Klucel (hydroxypropylcellulose) (HPC)",6 of 10
same,survivor count,"dose: 48.0 mg/kg/injection, schedule: Q01DX001 (ip), vehicle: Klucel (hydroxypropylcellulose) (HPC)",3 of 10 and 5 of 10
same,survivor count,"dose: 71.0 mg/kg/injection, schedule: Q01DX001 (ip), vehicle: Klucel (hydroxypropylcellulose) (HPC)",0 of 10
OC1CSC1.[Cl][Hg][Cl],survivor count,"dose: 40.0 mg/kg/injection, schedule: Q01DX001 (ip), vehicle: carboxymethylcellulose (CMC)",0 of 4
same,survivor count,"dose: 80.0 mg/kg/injection, schedule: Q01DX001 (ip), vehicle: carboxymethylcellulose (CMC)",0 of 4
NCCSSSSCCN,survivor count,[2],2 of 4
CCN(CC)CCN(C)C(=O)C(=O)c1ccccc1,survivor count,"dose: 300.0 mg/kg/injection, schedule: Q01DX001 (ip), vehicle: saline",2 of 6
